This assay has as its target Notch1 receptor (human (endogenous in MHCC-97 H and SNU-398)) (UniProt P46531). The experiment in a line: co-IP; MHCC-97 H and SNU-398 cells incubated with CAF-EVs for 24 h, lysed with RIPA buffer; extracts incubated with CTGF or Notch1 antibodies overnight at 4 °C, Protein A/G PLUS-Agarose 4 h at 4 °C; immunoblot with anti-CTGF or anti-Notch1 (reciprocal). On the technique in general: A western blot detects proteins with antibodies after separation by electrophoresis.

Sequences of proteins named here, by UniProt entry; tags and fusion partners are left off. Residues count along the entry.
UniProt P46531, residues 19-2555: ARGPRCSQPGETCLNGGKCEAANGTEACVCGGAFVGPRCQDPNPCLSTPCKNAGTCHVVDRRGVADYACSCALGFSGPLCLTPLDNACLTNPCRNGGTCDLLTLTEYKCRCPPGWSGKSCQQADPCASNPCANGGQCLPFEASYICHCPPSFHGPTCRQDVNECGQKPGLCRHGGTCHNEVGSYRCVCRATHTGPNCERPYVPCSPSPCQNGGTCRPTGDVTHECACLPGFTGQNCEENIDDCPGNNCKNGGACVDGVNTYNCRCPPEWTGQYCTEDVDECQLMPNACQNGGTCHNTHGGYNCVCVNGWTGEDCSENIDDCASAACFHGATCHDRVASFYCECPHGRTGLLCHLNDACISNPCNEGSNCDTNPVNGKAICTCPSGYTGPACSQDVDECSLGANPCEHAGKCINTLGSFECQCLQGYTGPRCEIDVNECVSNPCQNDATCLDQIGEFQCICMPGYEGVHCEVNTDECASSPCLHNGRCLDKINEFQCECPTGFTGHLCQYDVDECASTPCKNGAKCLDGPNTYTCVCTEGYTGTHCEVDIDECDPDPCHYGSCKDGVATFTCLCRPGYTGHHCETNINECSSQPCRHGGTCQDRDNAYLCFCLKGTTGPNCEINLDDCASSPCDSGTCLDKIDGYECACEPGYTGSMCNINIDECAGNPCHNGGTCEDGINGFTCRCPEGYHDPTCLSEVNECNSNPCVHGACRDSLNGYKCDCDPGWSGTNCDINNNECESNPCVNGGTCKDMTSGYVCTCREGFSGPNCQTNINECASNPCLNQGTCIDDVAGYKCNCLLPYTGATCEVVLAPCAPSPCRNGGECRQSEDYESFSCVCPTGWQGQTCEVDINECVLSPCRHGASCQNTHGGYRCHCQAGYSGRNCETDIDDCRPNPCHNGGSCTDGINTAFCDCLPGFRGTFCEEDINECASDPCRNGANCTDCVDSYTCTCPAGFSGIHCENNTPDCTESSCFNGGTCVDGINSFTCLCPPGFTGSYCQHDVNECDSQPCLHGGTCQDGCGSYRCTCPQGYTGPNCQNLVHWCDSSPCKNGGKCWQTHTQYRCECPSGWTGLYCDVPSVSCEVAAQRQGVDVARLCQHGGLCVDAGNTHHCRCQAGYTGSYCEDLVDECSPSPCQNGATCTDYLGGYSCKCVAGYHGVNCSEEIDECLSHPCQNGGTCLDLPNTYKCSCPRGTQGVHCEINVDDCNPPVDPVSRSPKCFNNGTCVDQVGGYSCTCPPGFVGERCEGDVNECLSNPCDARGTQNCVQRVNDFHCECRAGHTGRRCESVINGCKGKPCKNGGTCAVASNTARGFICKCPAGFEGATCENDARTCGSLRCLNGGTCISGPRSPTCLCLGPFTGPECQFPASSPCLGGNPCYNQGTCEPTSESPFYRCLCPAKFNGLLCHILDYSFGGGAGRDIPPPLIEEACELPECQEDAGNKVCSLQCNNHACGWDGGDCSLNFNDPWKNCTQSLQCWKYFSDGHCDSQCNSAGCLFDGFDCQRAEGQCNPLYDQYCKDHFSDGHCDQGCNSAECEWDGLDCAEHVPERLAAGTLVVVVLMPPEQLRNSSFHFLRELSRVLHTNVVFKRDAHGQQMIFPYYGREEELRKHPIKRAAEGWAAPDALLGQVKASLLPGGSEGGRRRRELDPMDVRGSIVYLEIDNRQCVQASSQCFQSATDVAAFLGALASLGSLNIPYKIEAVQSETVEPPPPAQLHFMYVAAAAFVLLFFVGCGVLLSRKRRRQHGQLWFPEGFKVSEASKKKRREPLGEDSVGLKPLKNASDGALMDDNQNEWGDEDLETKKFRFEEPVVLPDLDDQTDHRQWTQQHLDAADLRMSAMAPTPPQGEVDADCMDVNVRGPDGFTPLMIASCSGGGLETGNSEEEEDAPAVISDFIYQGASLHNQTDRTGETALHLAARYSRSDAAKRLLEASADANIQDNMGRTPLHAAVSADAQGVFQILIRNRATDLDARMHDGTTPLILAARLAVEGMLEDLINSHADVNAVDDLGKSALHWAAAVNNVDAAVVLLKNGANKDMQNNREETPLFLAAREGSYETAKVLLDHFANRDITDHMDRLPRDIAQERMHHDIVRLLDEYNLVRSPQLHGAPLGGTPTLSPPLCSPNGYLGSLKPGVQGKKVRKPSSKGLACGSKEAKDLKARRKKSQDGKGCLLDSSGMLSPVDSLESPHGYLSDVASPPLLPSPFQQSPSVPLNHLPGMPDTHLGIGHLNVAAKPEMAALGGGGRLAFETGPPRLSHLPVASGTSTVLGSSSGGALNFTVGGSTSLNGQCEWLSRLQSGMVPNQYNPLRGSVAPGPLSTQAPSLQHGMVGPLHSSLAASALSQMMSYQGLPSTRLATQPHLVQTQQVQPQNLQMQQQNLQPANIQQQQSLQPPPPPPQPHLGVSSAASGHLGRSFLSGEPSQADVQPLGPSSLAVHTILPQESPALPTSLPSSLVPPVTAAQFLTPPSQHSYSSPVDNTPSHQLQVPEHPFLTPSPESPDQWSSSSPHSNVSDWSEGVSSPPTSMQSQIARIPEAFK
UniProt P29279, residues 27-349: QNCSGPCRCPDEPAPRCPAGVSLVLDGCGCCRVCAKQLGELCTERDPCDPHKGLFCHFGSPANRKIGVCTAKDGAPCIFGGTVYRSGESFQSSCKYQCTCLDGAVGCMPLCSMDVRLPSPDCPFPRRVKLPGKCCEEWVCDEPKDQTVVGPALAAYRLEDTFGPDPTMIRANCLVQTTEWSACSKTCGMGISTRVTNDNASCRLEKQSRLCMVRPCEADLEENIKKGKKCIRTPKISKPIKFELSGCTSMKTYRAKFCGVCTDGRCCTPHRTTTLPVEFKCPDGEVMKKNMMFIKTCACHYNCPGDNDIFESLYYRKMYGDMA

These are yes or no findings as the source states them, for the method shown. In cells and extracts the contact can be indirect. Some entries that bind do so weakly or less than the wild type.

Turning to “Connective tissue growth factor (CTGF) (from UniProt P29279 27-349)”, the binding result is listed as “binds”.

The record behind these values is paper PMC12528347.
